Among the data in paper PMC7053999, “ParB spreading on DNA requires cytidine triphosphate in vitro” (eLife, 2020) are binding result and binding signal (fold faster dissociation vs buffer only) values, retold here.

What all share (experiment): BLI
In general terms: In BLI a coated tip is dipped into the sample, and binding shifts an interference pattern.

Data set [1] addresses T1, Caulobacter ParB-His6 (WT) (Caulobacter crescentus) (UniProt B8GW30).
T1 sequence (looked up, limits assumed): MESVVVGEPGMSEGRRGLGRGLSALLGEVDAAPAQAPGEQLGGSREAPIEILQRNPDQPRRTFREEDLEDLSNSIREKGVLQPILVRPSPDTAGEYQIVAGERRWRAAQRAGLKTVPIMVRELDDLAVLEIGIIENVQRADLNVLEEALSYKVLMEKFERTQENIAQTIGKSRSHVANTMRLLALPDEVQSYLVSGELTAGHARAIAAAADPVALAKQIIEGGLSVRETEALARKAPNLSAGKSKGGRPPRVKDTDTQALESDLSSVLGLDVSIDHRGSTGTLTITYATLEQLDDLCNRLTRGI
The note with it: BLI at 22 C: 100 mM Tris-HCl pH 8.0, 100 mM NaCl, 1 mM MgCl2, 0.005% Tween 20, 1 uM protein dimer, recombinant protein, protein details: C-terminal His6.

The subject of data set [2] is Sinorhizobium ParB (Sinorhizobium). The note with it: 1 mM CTP (enhanced), Mg2+; BLI at 22 C: 100 mM Tris-HCl pH 8.0, 100 mM NaCl, 1 mM MgCl2, 0.005% Tween 20; 1 uM protein dimer; recombinant protein; protein details: N-terminal His6-MBP; label: biotin at both 5' ends.
Data set [3] has as its system Dechloromonas ParB (Dechloromonas). The note with it: 1 mM CTP (enhanced), Mg2+; BLI at 22 C: 100 mM Tris-HCl pH 8.0, 100 mM NaCl, 1 mM MgCl2, 0.005% Tween 20; 1 uM protein dimer; recombinant protein; protein details: N-terminal His6-MBP; label: biotin at both 5' ends.
In data set [4] the test system is Zymomonas mobilis ParB (Zymomonas mobilis). The note with it: 0.01 mM CTP (enhanced), Mg2+; BLI at 22 C: 100 mM Tris-HCl pH 8.0, 100 mM NaCl, 1 mM MgCl2, 0.005% Tween 20; 1 uM protein dimer; recombinant protein; protein details: N-terminal His6-MBP; label: biotin at both 5' ends.
Data set [5] relates to Psychrobacter ParB (Psychrobacter). The note with it: 1 mM CTP (enhanced), Mg2+; BLI at 22 C: 100 mM Tris-HCl pH 8.0, 100 mM NaCl, 1 mM MgCl2, 0.005% Tween 20; 1 uM protein dimer; recombinant protein; protein details: N-terminal His6-MBP; label: biotin at both 5' ends.
Data set [6] has as its system Rhodobacter ParB (Rhodobacter). The note with it: 1 mM CTP (enhanced), Mg2+; BLI at 22 C: 100 mM Tris-HCl pH 8.0, 100 mM NaCl, 1 mM MgCl2, 0.005% Tween 20; 1 uM protein dimer; recombinant protein; protein details: N-terminal His6-MBP; label: biotin at both 5' ends.
The next data set deals with Thermus ParB (Thermus). The note with it: 1 mM CTP (enhanced), Mg2+; BLI at 22 C: 100 mM Tris-HCl pH 8.0, 100 mM NaCl, 1 mM MgCl2, 0.005% Tween 20; 1 uM protein dimer; recombinant protein; protein details: N-terminal His6-MBP; label: biotin at both 5' ends.
Data set [7] has as its target T2, Caulobacter ParB-His6 (R104A) (Caulobacter crescentus) (UniProt B8GW30).
T2 sequence (looked up, limits assumed): T1 sequence (looked up, limits assumed) with R104A
The note with it: BLI at 22 C: 100 mM Tris-HCl pH 8.0, 100 mM NaCl, 1 mM MgCl2, 0.005% Tween 20, 1 uM protein dimer, recombinant protein, protein details: C-terminal His6, label: biotin at both 5' ends.

Substitutions are numbered along the chain they refer to. Construct, isoform or probe ends are uncertain for at least one entry. For some assays here: The comparison behind a weaker result is the experiment's own reference, which may not be listed here. For some assays here: Where a protein sequence is shown, tags need not be part of it. For some assays here: At least one verdict rests on a figure or table, not on a statement of the authors. For some assays here: Whether high values mean tight binding is not given here for every scale.

For “CGCCAGGGTTTTCCCAGTCACGACGTTGTAAAACGACGGCCAGAATTCGCAACGTGTGTTTCACGTGAAACAGCCTTGAACTGATAACGACTCTATCATTGATAGAGTGTTCTCTCCACGGGATCCCCAGGCATGCAAGCTTGGCGTAATCATGGTCATAGCTGTTTCCT (double strand) [170 bp parS-tetO closed DNA]”, the binding result in data set [1] (1 mM CTP + 1 uM TetR roadblock, regained with 3 uM ahTc, label: biotin at both 5' ends) was “binds more weakly”.
In the case of “CGCCAGGGTTTTCCCAGTCACGACGTTGTAAAACGACGGCCAGTGAATTCGAGCTCGGTACCCGCAGGAGGACGTAGGGTAGGGGGATGTTTCACGTGAAACAGGGGATCCTCTAGAGTCGACCTGCAGGCATGCAAGCTTGGCGTAATCATGGTCATAGCTGTTTCCT (double strand) [169 bp parS closed DNA]”, the binding result (in data set [2]; in data set [3]; in data set [4]; in data set [5]; in data set [6]; in the data set on Thermus ParB (Thermus)) was “binds” each time. Also, the binding result in data set [7] (1 mM CTP, Mg2+) is on record as “binds more weakly”; in data set [7] (no NTP, described as nucleation-competent), “binds”.
Regarding “GGGATGTTTCACGTGAAACA (double strand) [20 bp parS]”, the binding result in data set [1] (1 mM CTP, Mg2+, label: 5' biotin on strand 1) was “binds more weakly”. The binding signal (fold faster dissociation vs buffer only) in data set [1] (dissociation in 1 mM CTP, Mg2+, label: 5' biotin on strand 1) turned out to be 7.
